The values that follow are results of earlier work, collected in patent publication US20250177299A1, “MOLECULAR COMPLEXING METHOD, FORMULATION AND MANUFACTURING FOR ENHANCED NUTRIENT DELIVERY” (Ingredient Fusion, LLC, priority 2021, published 2025).

Values after ≈ are worked out from the molar mass of the structure shown.

For this data set the following is noted: cited from earlier work.

Take `O=c1c(O)c(-c2ccc(O)c(O)c2)oc2cc(O)cc(O)c12` [Quercetin Aglycone]: where the note is “aglycone (CAS 117-39-5), at 70° F”, the solubility result is on record as “less than 1 mg/mL”.
With `O=c1c(O)c(-c2ccc(O)c(O)c2)oc2cc(O)cc(O)c12` [flavonoid, Quercetin], the solubility in water (at 140° C) is 665 µg/mL (≈ 2200 µM).
